In article PMC8852700:
These are yes or no findings as the source states them, for the method shown. Binding seen in cells or lysates may run through a third protein. These calls come from enrichment with a bait or labelling near it, and not all partners need be listed.

Chains of the proteins cited; added tags and fusions are not shown. Lines headed by an entry give the natural chain unless they say otherwise; changes in a name come on top. Residues count along the entry.
UniProt Q54841: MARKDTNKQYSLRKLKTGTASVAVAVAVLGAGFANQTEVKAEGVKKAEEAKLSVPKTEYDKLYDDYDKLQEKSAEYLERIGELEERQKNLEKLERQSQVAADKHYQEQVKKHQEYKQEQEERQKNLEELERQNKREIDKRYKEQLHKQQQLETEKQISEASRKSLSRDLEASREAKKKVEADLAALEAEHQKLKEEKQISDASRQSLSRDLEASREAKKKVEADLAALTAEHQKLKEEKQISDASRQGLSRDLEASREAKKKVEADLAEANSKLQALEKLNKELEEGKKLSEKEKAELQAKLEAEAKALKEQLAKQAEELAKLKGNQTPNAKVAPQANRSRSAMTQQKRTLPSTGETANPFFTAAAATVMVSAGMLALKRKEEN
UniProt P16947, residues 42-359: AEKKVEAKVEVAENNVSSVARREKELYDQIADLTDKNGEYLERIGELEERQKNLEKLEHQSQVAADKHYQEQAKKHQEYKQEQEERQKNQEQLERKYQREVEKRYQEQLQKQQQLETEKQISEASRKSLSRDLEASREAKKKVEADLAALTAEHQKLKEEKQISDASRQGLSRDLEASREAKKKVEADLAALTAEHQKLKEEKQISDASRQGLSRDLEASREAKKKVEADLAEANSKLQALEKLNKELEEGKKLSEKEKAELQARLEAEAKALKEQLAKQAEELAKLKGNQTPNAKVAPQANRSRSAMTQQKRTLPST
UniProt P02768, residues 25-609: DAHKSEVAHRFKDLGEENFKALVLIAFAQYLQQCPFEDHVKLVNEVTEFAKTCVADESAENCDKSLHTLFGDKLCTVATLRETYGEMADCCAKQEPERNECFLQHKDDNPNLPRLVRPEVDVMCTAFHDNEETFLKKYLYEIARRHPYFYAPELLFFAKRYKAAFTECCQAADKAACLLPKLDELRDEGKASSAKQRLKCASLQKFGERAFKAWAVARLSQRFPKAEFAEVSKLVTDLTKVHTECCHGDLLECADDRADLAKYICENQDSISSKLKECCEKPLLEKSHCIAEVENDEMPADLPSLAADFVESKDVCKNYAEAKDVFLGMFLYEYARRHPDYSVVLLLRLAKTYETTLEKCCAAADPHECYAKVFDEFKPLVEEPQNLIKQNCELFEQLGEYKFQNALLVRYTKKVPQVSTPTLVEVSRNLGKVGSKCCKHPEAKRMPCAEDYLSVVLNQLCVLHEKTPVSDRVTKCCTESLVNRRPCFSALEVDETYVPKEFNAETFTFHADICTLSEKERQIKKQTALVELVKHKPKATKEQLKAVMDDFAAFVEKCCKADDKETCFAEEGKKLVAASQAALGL
UniProt P02671: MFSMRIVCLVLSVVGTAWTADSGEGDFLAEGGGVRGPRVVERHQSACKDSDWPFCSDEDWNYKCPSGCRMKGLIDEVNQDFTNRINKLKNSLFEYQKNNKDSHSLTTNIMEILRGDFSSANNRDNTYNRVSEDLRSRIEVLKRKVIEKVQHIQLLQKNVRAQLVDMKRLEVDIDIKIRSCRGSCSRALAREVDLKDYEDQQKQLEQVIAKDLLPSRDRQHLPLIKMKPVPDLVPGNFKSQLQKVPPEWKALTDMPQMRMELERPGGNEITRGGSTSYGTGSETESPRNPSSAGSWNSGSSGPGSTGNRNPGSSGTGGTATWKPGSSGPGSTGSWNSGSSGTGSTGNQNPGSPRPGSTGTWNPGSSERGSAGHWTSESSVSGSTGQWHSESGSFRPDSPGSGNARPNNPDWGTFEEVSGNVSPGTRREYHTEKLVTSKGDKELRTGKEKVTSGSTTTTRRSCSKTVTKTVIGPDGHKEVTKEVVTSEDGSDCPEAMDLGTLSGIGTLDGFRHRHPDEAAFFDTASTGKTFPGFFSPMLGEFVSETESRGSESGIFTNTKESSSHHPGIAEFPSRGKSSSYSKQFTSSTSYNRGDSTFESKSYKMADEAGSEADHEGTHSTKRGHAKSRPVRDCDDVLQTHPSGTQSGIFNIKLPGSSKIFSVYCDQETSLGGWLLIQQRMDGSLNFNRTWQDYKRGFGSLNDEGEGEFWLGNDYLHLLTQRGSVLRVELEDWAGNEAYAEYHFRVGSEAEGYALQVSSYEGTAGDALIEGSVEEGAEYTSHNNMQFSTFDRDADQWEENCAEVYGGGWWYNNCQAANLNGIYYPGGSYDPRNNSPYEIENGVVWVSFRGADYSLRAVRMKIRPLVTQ

Tests used:
Assay in all cases: affinity purification with mass spectrometry; M protein (5 ug/mL) added to human plasma diluted 1:10 in D-PBS from five healthy donors, 1 h at room temperature; complexes pelleted at 12,000 x g for 1 min, washed, analysed by DIA-MS; only the target purified
[1] = target: M1 protein (Streptococcus pyogenes) (UniProt Q99XV0)
[2] = target: M28 protein (Streptococcus pyogenes) (UniProt Q54841)
[3] = target: M3 protein (Streptococcus pyogenes) (UniProt Q54841)
[4] = target: M49 protein (Streptococcus pyogenes) (UniProt P16947)
[5] = target: T1, M5 protein (Streptococcus pyogenes) (UniProt P02977)
T1 sequence: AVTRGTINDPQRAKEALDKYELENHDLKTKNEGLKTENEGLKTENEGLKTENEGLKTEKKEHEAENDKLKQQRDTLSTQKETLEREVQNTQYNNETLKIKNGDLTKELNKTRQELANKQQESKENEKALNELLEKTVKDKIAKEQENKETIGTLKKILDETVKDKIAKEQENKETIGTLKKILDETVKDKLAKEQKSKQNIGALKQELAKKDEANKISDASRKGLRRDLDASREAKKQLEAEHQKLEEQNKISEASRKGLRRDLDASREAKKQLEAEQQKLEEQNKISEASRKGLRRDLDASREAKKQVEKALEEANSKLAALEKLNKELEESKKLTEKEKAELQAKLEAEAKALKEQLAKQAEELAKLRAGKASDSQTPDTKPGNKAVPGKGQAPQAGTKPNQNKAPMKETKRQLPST

[6] = target: M89 protein (Streptococcus pyogenes) (UniProt Q54841)

Measured: binding

albumin (from UniProt P02768 25-609)
binds: all assays above

human fibrinogen (from UniProt P02671 36-866; P02675 45-491; P02679 27-453)
binds: [1] | [3] | [5]
